Measurements published in the supplement of paper PMC4635364.
Counter-ions that a name gives are not always drawn. This is one part of the list. This data set is noisy: repeats of one test often differ as much as different tests do.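 Human fetal ventral-midbrain neural progenitor line ReNCell VM, differentiated without mitogens. Images stained for doublecortin (early neurons) or tyrosine hydroxylase (dopaminergic neurons) were scored by blinded raters against untreated wells (0 = no change). Repeats and both raters were averaged, and compounds averaging 2 or higher were picked as hits for retesting.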

Key:
ReNCell VM [1] = experiment: neuronal differentiation score (DCX+ cell fraction vs untreated, manual image score) (score (-3 to 3)); higher = more neuronal differentiation; settings: 2 uM, 2 weeks
ReNCell VM [2] = experiment: dopaminergic neuron differentiation score (TH+ cell fraction vs untreated, manual image score) (score (0 to 3)); higher = more TH+ dopaminergic neuron differentiation; settings: 2 uM, 4 weeks, BDNF 10 ng/ml + GDNF 10 ng/ml

## NCCc1cc[nH]n1
ReNCell VM [1]; library: Spectrum
  neuronal differentiation score: inactive: 0
ReNCell VM [2]; library: Spectrum
  dopaminergic neuron differentiation score: inactive: 0

## Oc1c(Cl)cc(Cl)c(Cl)c1Cc1c(O)c(Cl)cc(Cl)c1Cl
ReNCell VM [1]; library: Spectrum
  neuronal differentiation score: inactive: 0
ReNCell VM [2]; library: Spectrum
  dopaminergic neuron differentiation score: inactive: 0

## CCCCCCNC(=O)Nc1ccc(S(=O)(=O)Nc2ccc(CCNC[C@H](O)COc3ccc(O)cc3)cc2)cc1
ReNCell VM [1]; library: Tocriscreen
  neuronal differentiation score: inactive: 0
ReNCell VM [2]; library: Tocriscreen
  dopaminergic neuron differentiation score: inactive: 0

## C=C[C@](C)(O)CC[C@@H]1[C@@]2(C)CCCC(C)(C)[C@@H]2CC[C@@]1(C)O
ReNCell VM [1]; library: Spectrum
  neuronal differentiation score: inactive: 0
ReNCell VM [2]; library: Spectrum
  dopaminergic neuron differentiation score: inactive: 0

## C1N2CN3CN1CN(C2)C3
ReNCell VM [1]; library: Spectrum
  neuronal differentiation score: inactive: 1
ReNCell VM [2]; library: Spectrum
  dopaminergic neuron differentiation score: inactive: 0

## O=C(/C=C/c1ccc(OCc2ccccc2)cc1OCc1ccccc1)c1ccc(OCc2ccccc2)cc1O [4,2,4'-Tribenzyloxy-6'-hydroxychalcone]
ReNCell VM [1]; library: Phytochemical
  neuronal differentiation score: inactive: 0
ReNCell VM [2]; library: Phytochemical
  dopaminergic neuron differentiation score: inactive: 0

## NCCS(=O)(=O)O [Taurine]
ReNCell VM [1]; library: LOPAC
  neuronal differentiation score: inactive: 0
ReNCell VM [2]; library: LOPAC
  dopaminergic neuron differentiation score: inactive: 0

## COc1ccc(/C=C/C(=O)c2ccc(O)cc2O)cc1
ReNCell VM [1]; library: Spectrum
  neuronal differentiation score: inactive: 0
ReNCell VM [2]; library: Spectrum
  dopaminergic neuron differentiation score: inactive: 0

## NC(=O)CCCCC1CCSS1 (stereo not drawn)
ReNCell VM [1]; library: Spectrum
  neuronal differentiation score: inactive: 0
ReNCell VM [2]; library: Spectrum
  dopaminergic neuron differentiation score: inactive: 1

## Nc1c2ccccc2nc2ccccc12
ReNCell VM [1]; library: Spectrum
  neuronal differentiation score: inactive: 0
ReNCell VM [2]; library: Spectrum
  dopaminergic neuron differentiation score: inactive: 0

## Oc1ccc(OCc2ccccc2)cc1
ReNCell VM [1]; library: Spectrum
  neuronal differentiation score: inactive: 0
ReNCell VM [2]; library: Spectrum
  dopaminergic neuron differentiation score: inactive: 0

## CN(Cc1cc(Br)cc(Br)c1N)C1CCCCC1 [Bromhexine hydrochloride]
ReNCell VM [1]; library: Prestwick
  neuronal differentiation score: inactive: 0
ReNCell VM [2]; library: Prestwick
  dopaminergic neuron differentiation score: inactive: 0

## CNCCCC1c2ccccc2C=Cc2ccccc21
ReNCell VM [1]; library: Spectrum
  neuronal differentiation score: inactive: 0
ReNCell VM [2]; library: Spectrum
  dopaminergic neuron differentiation score: inactive: 0

## c1cc2c(cc1C1CCCCC1)c1c3n2CCNC3CCC1 (stereo not drawn) [Tetrindole mesylate]
ReNCell VM [1]; library: Tocriscreen
  neuronal differentiation score: inactive: 0
ReNCell VM [2]; library: Tocriscreen
  dopaminergic neuron differentiation score: inactive: 0

## COCCCC/C(=N\OCCN)c1ccc(C(F)(F)F)cc1
ReNCell VM [1]; library: Spectrum
  neuronal differentiation score: inactive: 0
ReNCell VM [2]; library: Spectrum
  dopaminergic neuron differentiation score: inactive: 0

## Cc1cccc(Nc2ccncc2S(=O)(=O)NC(=O)NC(C)C)c1 [Torsemide]
ReNCell VM [1]; library: Prestwick
  neuronal differentiation score: inactive: 0
ReNCell VM [2]; library: Prestwick
  dopaminergic neuron differentiation score: inactive: 0

## COC(=O)[C@H]1[C@H]2C[C@@H]3c4[nH]c5cc(OC)ccc5c4CCN3C[C@H]2C[C@@H](OC(=O)/C=C/c2cc(OC)c(OC)c(OC)c2)[C@@H]1OC [reserpinine]
ReNCell VM [1]; library: Natural
  neuronal differentiation score: inactive: 0
ReNCell VM [2]; library: Natural
  dopaminergic neuron differentiation score: inactive: 0

## CC1(C)C(=O)N(CCN2CCC(C(=O)c3ccc(F)cc3)CC2)c2ccccc21 [LY-310,762 hydrochloride]
ReNCell VM [1]; library: LOPAC
  neuronal differentiation score: inactive: 0
ReNCell VM [2]; library: LOPAC
  dopaminergic neuron differentiation score: inactive: 0

## COc1ccc2c(c1)c(CC(=O)O)c(C)n2Cc1ccc(Cl)cc1 [1-(4-Chlorobenzyl)-5-methoxy-2-methylindole-3-acetic acid]
ReNCell VM [1]; library: LOPAC
  neuronal differentiation score: inactive: 0
ReNCell VM [2]; library: LOPAC
  dopaminergic neuron differentiation score: inactive: 0
